Test results from article doi:10.1101/2024.07.01.601539.
These are yes or no findings as the source states them, for the method shown. Binding can be weak; no strength is given.

Target: recombinant LC3C (Microtubule-associated protein 1A/1B-light chain 3, isoform C) (UniProt Q9BXW4)
Test: far-Western, overlay or dot blot

Substance: recombinant Heat Shock Protein 27 (HSp27) (from UniProt P04792 1-205)
- binding: binds
